Results taken from US20250222127A1, “COMPOSITIONS AND METHODS FOR TREATING AND PREVENTING TRANSPLANT-ASSOCIATED INJURY” (MUSC Foundation For Research Development, priority 2016, published 2025).
These are yes or no findings as the source states them, for the method shown. Some results given as binding are weak or reduced against the parent protein; the word gives no strength.

Molecular target: T1, annexin IV in post-ischemic mouse tissue (transplanted heart, brain-dead donor cardiac grafts, liver) (mouse) (UniProt P97429)
T1 sequence (looked up): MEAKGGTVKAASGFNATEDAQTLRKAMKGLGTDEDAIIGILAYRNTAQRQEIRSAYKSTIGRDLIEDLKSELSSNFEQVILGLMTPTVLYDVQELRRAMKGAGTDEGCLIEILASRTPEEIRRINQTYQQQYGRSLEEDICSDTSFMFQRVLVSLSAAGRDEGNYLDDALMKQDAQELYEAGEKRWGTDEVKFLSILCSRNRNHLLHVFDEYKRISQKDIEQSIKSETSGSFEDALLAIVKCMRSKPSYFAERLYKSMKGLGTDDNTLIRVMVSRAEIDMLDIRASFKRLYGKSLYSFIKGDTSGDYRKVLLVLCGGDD
Assay: in vivo targeting, mouse cardiac allograft model

B1: B4scFv-Crry (scFv)
chain: VKLQESGPELVKPGASVKISCKASGYTFTDYYMNWVKQSHGKSLEWIGDINPNNGGTSYNQKFKGKATLTVDKSSSTAYMELRSLTSEDSAVYYCARYDYAWYFDVWGQGTTVTVSSGGGGSGGGGSGGGGDVLMTQTPLSLPVSLGDQASISCRSSQSIVHSNGNTYLEWYLQKPGQSPKLLIYKVSNRFSGVPDRFSGSGSGTDFTLKISRVEAEDLGVYYCFQGSHVPYTFGGGTKLEIKRGGGGSGGGGSCPAPSQLPSAKPINLTDESMFPIGTYLLYECLPGYIKRQFSITCKQDSTWTSAEDKCIRKQCKTPSDPENGLVHVHTGIQFGSRINYTCNQGYRLIGSSSAVCVITDQSVDWDTEAPICEWIPCEIPPGIPNGDFFSSTREDFHYGMVVTYRCNTDARGKALFNLVGEPSLYCTSNDGEIGVWSGPPPQCIELNKCTPPPYVENAVMLSENRSLFSLRDIVEFRCHPGFIMKGASSVHCQSLNKWEPELPSCFKGVICRLPQEMSGFQKGLGMKKEYYYGENVTLECEDGYTLEGSSQSQCQSDGSWNPLLAKCVSRSIIEGRHHHHHH
modifications: 125I radiolabel in the graft perfusion experiment (position not given)
notes: also called B4-Crry; B4Crry
For B1, the binding was “binds”.
